# Reference: patent publication US10004761B2, “Malodor neutralizing composition” (priority 2016, dated 2018)
# Tested on: hyaluronidase Type IV-S, from bovine testes (Hyase)
# Assay: Dische's assay (Method II) of HA degradation by Hyase with inhibitors
# Assay type: biochemical
# Conditions: 20 μL inhibitor stock incubated 2 h with 20 μL Hyase, then HA 200 μL, room temperature 24 h
# Method: Method II (Dische's assay; detection of uronic acid residues): Assays were performed by following the procedures described in Dische Z. [J. Biol. Chem., 1947, 167, p. 189-198] and Dische and Rothschild [Anal Biochem., 1967, 21(1), p. 125-30]. In these assays, molecules containing the uronic acid residues found in the precipitate formed upon CPC additions, are re-solubilized and products formed by -sulfuric acid hydrolysis of these fragments are detected by a spectrophotometric assay employing carbazole chromagen reagent. In addition, small residues degraded off the HA chains that have not precipitated with the addition of CPC, can be detected by the carbazole assay performed on the solution, so as to detect all of the uronic acid content.
# Evaluation of HA degradation by this method was generally performed as follows:
# 20 μL of a NAC stock solution, and 20 μL of the stock solutions of the other inhibitors were used in the assay.
# 200 μL of the HA stock solution were placed in each tube, for achieving a 1 mg HA per tube.
# Twenty (20) μL of hyase and 20 μL of NAC were combined and incubated for 2 hours. Then 200 μL of HA (1 mg) were added to each tube and the mixture was incubated at room temperature for 24 hours. Thereafter, the tubes were heated for 2 minutes in boiling water bath and 8 mL of doubled distilled water were added to the tubes as preparation for the Dische's assay.
# As per Dische's Assay, 100 μL of 3N NaCl and 0.5 mL of 10% CPC (cetylpyridinium chloride) were thereafter added to each tube and the mixture was incubated at 37° C. until flocculation-turbidity (resulting from precipitation of HA+CPC) could be observed. The mixture was centrifuged for 10 minutes at 10,000 g at room temperature, and the supernatant was thereafter separated from the obtained pellet.
# The pellet was dissolved in 1 ml of CaCl2, and the obtained solution was incubated at 37° C. until complete dissolution of the pellet is obtained. […]
# The pink-violet color developed by the chromogen was measured using a spectrophotometer at 527 nm. […]
row,Compound,Net OD at 527 nm
1,"O=C(O)c1cc(=O)c2c(OCC(O)COc3cccc4oc(C(=O)O)cc(=O)c34)cccc2o1 [Cromoglycate, sodium Cromoglycate]",0.001
2,"N[C@@H](CCC(=O)N[C@@H](CS)C(=O)NCC(=O)O)C(=O)O [Glutathione, Reduced Glutathione]",0.045
3,"CC(=O)N[C@@H](CS)C(=O)O [NAC, N-acetyl L-cysteine]",0.321
